Measured values reported in the supplement of paper PMC10849652.
This is one part of the list.

Sequences of proteins named here, by UniProt entry; tags and fusion partners are left off. A change or cut given only in a name is not applied to a line headed by its entry.
UniProt Q8N2G8: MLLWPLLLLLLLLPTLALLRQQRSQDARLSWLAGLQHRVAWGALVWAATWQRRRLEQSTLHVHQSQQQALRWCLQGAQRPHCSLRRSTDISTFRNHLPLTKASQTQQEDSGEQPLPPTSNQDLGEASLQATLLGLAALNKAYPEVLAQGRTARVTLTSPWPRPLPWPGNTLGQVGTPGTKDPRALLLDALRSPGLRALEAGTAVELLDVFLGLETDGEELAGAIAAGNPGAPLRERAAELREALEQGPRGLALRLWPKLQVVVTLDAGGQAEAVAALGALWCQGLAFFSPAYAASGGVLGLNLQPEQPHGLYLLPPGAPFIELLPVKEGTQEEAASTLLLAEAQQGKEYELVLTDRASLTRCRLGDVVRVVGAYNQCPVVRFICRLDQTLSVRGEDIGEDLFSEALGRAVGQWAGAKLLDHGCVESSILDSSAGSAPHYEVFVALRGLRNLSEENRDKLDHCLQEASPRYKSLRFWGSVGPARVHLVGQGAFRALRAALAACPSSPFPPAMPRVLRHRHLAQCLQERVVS
UniProt Q9H9Y4: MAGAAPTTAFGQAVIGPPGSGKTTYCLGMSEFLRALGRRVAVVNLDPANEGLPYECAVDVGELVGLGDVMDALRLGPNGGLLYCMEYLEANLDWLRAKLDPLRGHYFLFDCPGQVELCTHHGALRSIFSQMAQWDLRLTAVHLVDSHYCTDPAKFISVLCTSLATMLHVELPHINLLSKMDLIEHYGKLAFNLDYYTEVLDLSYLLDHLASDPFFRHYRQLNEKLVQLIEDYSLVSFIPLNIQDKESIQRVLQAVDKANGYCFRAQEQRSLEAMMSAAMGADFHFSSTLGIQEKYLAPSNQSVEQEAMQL
UniProt B7ZAQ6: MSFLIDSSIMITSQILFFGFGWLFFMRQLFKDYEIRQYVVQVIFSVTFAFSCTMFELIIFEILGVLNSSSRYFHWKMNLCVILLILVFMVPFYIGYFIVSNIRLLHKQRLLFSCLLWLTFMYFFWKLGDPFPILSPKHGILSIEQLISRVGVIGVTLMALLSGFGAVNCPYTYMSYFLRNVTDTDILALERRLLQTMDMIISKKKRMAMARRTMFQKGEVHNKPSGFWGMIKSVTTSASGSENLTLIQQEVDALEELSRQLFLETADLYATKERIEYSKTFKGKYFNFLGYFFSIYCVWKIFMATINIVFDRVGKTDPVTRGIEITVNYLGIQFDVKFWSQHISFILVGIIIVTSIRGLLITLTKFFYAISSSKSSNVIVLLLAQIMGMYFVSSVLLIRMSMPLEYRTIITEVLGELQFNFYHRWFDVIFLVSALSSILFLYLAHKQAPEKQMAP
UniProt Q5JWF2, whole entry, looked up: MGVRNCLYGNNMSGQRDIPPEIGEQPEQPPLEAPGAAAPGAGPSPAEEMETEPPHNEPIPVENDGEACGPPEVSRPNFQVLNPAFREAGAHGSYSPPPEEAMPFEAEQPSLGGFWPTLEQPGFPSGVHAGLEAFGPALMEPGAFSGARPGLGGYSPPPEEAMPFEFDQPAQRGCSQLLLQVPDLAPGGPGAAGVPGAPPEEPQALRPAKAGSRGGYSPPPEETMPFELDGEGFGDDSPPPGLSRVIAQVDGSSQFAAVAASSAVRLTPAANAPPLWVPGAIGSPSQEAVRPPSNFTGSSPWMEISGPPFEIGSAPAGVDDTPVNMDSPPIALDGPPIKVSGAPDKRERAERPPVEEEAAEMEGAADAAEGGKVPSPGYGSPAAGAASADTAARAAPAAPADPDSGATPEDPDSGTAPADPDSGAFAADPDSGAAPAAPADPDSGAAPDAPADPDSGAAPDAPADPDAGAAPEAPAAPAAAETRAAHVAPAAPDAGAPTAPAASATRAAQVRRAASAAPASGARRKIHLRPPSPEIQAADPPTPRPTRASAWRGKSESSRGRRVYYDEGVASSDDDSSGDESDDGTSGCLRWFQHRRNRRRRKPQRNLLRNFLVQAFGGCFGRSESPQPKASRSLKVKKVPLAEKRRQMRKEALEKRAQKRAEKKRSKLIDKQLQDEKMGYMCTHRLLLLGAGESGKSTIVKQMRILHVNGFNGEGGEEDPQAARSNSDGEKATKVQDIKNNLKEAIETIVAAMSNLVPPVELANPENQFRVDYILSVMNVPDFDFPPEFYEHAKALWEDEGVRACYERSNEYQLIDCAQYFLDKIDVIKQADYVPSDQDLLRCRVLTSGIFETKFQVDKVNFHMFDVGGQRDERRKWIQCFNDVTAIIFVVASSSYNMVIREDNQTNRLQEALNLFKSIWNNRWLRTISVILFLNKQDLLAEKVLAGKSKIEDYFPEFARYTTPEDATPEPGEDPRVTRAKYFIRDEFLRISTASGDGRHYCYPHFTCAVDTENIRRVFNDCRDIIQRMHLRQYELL
UniProt P13224: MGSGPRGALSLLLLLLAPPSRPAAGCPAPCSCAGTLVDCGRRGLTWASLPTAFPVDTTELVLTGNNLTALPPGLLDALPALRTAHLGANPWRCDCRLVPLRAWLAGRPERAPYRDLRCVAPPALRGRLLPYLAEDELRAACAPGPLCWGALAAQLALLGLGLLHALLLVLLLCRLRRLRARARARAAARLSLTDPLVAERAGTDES
UniProt Q92990: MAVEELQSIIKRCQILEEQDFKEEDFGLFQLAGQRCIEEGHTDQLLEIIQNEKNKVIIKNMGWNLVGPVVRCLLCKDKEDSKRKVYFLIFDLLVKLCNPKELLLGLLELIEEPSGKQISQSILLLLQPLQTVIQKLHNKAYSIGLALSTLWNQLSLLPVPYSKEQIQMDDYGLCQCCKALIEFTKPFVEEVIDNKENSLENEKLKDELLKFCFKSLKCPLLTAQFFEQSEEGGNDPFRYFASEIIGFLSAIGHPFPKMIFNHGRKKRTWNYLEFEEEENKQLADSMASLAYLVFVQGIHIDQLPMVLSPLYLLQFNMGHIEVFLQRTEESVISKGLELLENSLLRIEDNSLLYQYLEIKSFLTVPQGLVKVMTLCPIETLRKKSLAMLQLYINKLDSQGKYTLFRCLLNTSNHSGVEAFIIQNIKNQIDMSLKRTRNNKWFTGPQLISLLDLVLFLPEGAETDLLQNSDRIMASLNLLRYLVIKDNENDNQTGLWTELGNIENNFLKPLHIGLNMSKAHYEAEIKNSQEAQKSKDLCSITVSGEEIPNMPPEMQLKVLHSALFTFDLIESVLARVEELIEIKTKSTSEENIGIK
UniProt O60234, whole entry, looked up: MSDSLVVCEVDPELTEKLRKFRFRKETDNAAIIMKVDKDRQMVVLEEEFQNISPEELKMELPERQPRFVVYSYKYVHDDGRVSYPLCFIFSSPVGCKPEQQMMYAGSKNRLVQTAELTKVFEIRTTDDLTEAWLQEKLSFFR
UniProt Q9UJJ9: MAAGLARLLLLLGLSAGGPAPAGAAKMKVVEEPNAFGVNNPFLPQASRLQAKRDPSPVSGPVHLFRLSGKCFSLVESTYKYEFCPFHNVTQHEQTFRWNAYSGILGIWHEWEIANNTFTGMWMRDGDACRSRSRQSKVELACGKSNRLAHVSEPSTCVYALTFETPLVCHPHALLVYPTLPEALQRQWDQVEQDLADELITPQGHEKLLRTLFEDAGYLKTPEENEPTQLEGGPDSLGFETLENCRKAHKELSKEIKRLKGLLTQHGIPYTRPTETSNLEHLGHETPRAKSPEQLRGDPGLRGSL
UniProt P63218: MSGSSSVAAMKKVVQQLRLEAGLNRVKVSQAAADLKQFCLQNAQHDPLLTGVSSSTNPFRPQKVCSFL
UniProt Q9BRT9, whole entry, looked up: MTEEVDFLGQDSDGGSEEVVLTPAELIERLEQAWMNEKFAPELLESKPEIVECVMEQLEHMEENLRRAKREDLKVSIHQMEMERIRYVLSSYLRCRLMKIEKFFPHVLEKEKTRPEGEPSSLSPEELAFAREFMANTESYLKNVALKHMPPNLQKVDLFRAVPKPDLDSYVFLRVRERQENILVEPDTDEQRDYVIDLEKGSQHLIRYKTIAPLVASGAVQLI
UniProt O43292: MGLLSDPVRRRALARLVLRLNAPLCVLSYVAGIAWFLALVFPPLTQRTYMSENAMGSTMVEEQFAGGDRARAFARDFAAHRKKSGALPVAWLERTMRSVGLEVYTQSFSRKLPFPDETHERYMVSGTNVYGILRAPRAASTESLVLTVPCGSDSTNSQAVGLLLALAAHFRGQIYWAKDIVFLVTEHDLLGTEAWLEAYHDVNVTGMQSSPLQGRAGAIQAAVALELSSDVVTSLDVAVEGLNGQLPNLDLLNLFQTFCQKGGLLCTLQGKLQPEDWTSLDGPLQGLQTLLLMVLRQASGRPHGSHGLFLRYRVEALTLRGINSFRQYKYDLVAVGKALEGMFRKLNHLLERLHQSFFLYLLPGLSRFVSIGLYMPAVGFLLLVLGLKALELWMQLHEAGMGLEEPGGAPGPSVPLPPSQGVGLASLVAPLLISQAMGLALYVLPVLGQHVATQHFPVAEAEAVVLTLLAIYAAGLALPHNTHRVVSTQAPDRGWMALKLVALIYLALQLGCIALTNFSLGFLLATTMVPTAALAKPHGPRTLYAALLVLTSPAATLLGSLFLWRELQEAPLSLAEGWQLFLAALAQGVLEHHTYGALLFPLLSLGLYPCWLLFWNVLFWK
UniProt Q9H4A5: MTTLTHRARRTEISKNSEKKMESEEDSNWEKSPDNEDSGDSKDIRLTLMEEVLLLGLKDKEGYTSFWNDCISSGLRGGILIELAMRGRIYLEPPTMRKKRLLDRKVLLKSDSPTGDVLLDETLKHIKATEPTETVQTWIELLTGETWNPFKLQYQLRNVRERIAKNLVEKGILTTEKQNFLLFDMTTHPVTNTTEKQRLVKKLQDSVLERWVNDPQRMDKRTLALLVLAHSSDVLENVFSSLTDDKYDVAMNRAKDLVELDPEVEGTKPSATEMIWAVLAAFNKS
UniProt Q92805: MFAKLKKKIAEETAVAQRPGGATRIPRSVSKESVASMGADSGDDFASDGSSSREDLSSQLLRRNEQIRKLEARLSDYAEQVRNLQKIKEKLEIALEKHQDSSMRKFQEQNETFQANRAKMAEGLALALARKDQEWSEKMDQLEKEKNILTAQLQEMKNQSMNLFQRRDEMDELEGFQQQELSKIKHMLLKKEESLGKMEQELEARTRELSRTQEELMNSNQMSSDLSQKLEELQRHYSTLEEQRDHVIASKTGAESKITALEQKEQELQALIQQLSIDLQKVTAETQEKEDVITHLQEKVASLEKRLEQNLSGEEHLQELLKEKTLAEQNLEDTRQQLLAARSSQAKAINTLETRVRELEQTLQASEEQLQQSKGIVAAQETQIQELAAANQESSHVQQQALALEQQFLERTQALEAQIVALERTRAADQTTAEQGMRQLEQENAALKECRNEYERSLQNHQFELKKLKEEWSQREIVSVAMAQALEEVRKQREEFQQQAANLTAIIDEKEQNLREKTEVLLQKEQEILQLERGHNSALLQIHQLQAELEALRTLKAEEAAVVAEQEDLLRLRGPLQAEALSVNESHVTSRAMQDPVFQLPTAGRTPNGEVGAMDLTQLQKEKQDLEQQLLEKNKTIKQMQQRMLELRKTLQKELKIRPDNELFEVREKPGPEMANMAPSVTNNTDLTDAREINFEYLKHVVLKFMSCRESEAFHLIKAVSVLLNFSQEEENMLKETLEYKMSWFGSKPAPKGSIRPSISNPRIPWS
UniProt Q13227: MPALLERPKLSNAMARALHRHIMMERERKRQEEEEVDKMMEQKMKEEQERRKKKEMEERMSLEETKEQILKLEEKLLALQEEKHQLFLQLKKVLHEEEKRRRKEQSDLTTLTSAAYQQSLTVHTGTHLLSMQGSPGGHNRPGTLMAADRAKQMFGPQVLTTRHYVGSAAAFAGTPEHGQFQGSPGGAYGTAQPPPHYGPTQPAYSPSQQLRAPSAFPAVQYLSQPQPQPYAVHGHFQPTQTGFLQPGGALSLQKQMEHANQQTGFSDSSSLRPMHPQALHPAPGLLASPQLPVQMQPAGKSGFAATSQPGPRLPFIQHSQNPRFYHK
UniProt Q9UHW5, whole entry, looked up: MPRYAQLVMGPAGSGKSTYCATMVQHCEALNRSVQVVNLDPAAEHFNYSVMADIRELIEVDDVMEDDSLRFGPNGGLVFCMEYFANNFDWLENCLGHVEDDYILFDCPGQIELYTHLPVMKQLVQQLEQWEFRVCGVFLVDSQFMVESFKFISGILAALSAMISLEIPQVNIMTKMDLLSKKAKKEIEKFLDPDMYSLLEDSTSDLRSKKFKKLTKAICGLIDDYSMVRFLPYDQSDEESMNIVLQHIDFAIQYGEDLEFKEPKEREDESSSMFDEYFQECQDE
UniProt O75223: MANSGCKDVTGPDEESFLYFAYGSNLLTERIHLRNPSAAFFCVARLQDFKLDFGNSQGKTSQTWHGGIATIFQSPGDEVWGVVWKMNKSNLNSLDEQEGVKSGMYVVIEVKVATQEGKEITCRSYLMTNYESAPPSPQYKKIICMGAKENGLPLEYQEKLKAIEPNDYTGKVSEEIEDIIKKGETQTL
UniProt Q14691: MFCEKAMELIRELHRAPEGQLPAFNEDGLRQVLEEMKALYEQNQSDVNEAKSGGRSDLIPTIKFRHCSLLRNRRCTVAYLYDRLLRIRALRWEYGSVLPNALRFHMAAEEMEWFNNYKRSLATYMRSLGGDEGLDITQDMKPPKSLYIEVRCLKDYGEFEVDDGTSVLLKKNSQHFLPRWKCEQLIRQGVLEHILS

Key:
Assay in all cases: log2 fold change, soluble protein after heating vs DMSO (PISA); higher = thermal stabilisation; K562 lysate, 10 uM; active = over 0.2 and 3.5 SD of the protein, either way, in both replicates (recomputed)
nilotinib = compound: Cc1cn(-c2cc(NC(=O)c3ccc(C)c(Nc4nccc(-c5cccnc5)n4)c3)cc(C(F)(F)F)c2)cn1 [nilotinib]
Method in brief: (§1)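 A 30 min treatment with 10 μM compound was applied to crude K562 extract at 1 mg/mL protein in PBS pH 7.4 with 1 mM MgCl2. Heating for 3 min spanned 48°C-58°C, after which aliquots were pooled, adjusted to 0.5% NP-40 at 4°C and spun at 21,000xg for 90 min. TMTpro 16plex LC-MS/MS of the supernatant, with channel sums equalised, gave values recorded as log-two fold change in thermal stability against solvent controls, from duplicates.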

[1] = compound: Cc1nc(Nc2n[nH]c3c2CN(C(=O)N[C@H](CN(C)C)c2ccccc2)C3(C)C)c2sccc2n1
Method in brief: as §1

dasatinib = compound: Cc1nc(Nc2ncc(C(=O)Nc3c(C)cccc3Cl)s2)cc(N2CCN(CCO)CC2)n1 [dasatinib]
Method in brief: as §1

[2] = compound: Cc1ncc(-c2ccnc(Nc3ccc(S(C)(=O)=O)cc3)n2)n1C(C)C
Method in brief: as §1

[3] = compound: Cn1cc(-c2ccc3c(c2)CCN3C(=O)Cc2cccc(C(F)(F)F)c2)c2c(N)ncnc21
Method in brief: as §1

quisinostat = compound: Cn1cc(CNCC2CCN(c3ncc(C(=O)NO)cn3)CC2)c2ccccc21 [quisinostat]
Method in brief: as §1

tipifarnib = compound: Cn1cncc1[C@@](N)(c1ccc(Cl)cc1)c1ccc2c(c1)c(-c1cccc(Cl)c1)cc(=O)n2C [tipifarnib]
Method in brief: as §1

[4] = compound: NC(=O)Nc1cc(-c2cccc(F)c2)sc1C(=O)N[C@H]1CCCNC1
Method in brief: as §1

[5] = compound: NC(=O)c1cnc(N[C@@H]2CCCC[C@@H]2N)nc1Nc1cccc(-n2nccn2)c1
Method in brief: as §1

[6] = compound: NC1(c2ccc(-c3nc4ccn5c(=O)[nH]nc5c4cc3-c3ccccc3)cc2)CCC1
Method in brief: as §1

Measured: log2 fold change

GNL3 (UniProt Q9BVP2)
inactive: nilotinib 0.008 | [1] -0.022 | dasatinib -0.005 | [2] 0.029 | [3] -0.003 | quisinostat -0.164 | tipifarnib 0.013 | [4] 0.038 | [5] 0.022 | [6] -0.031

GHDC (UniProt Q8N2G8)
inactive: nilotinib -0.031 | [1] -0.04 | dasatinib -0.135 | [2] 0.034 | [3] -0.04 | quisinostat -0.033 | tipifarnib 0.039 | [4] 0.013 | [5] 0.006 | [6] 0.019

GPN2 (UniProt Q9H9Y4)
inactive: nilotinib -0.065 | [1] 0.046 | dasatinib 0.062 | [2] -0.009 | [3] -0.046 | quisinostat -0.022 | tipifarnib 0.013 | [4] -0.008 | [5] 0.01 | [6] -0.034

GIPC3 (UniProt Q8TF64)
inactive: nilotinib 0.183 | dasatinib -0.071 | [2] 0.097 | [3] -0.009 | quisinostat -0.309 | tipifarnib -0.067 | [4] 0.134 | [5] 0.045 | [6] 0.016
active: [1] -0.602

GPR89A (UniProt B7ZAQ6)
inactive: nilotinib -0.049 | [1] -0.043 | dasatinib -0.128 | [2] 0.018 | [3] -0.101 | quisinostat -0.098 | tipifarnib -0.074 | [4] 0.054 | [5] 0.033 | [6] -0.088

GNAS (UniProt Q5JWF2)
inactive: nilotinib 0.016 | [1] -0.035 | dasatinib -0.001 | [2] 0.002 | [3] 0.028 | quisinostat -0.012 | tipifarnib 0.021 | [4] 0.038 | [5] -0.01 | [6] -0.007

GLA (UniProt P06280)
inactive: nilotinib 0.011 | [1] -0.038 | dasatinib 0.052 | [2] 0.01 | [3] 0.093 | quisinostat 0.025 | tipifarnib 0.022 | [4] -0.004 | [5] 0.011 | [6] -0.022

GP1BB isoform 2 (UniProt P13224)
inactive: nilotinib 0.021 | [1] -0.027 | dasatinib 0.008 | [2] 0.032 | [3] 0.011 | quisinostat 0.03 | tipifarnib -0.061 | [4] -0.012 | [5] 0.027 | [6] 0.004

GNB1L (UniProt Q9BYB4)
inactive: nilotinib 0.013 | [1] 0.007 | dasatinib 0.063 | [2] -0.035 | [3] 0 | quisinostat -0.031 | tipifarnib -0.013 | [4] -0.025 | [5] -0.026 | [6] -0.015

GLMN (UniProt Q92990)
inactive: nilotinib -0.002 | [1] 0.002 | dasatinib 0.012 | [2] -0.01 | [3] 0.016 | quisinostat -0.023 | tipifarnib 0.006 | [4] 0.022 | [5] 0.047 | [6] -0.009

GORAB (UniProt Q5T7V8)
inactive: nilotinib -0.096 | [1] 0.044 | dasatinib -0.004 | [2] 0.046 | [3] 0.032 | quisinostat 0.038 | tipifarnib -0.057 | [4] -0.035 | [5] -0.02 | [6] 0.021

GMFG (UniProt O60234)
inactive: nilotinib 0.023 | [1] -0.051 | dasatinib 0.02 | [2] -0.089 | [3] 0.016 | quisinostat 0.046 | tipifarnib 0.018 | [4] -0.017 | [5] -0.054 | [6] 0.053

GIGYF1 (UniProt O75420)
inactive: nilotinib -0.03 | [1] 0.013 | dasatinib -0.078 | [2] -0.013 | [3] -0.003 | quisinostat -0.156 | tipifarnib -0.053 | [4] 0.03 | [5] 0.057 | [6] 0.104

GNPTG (UniProt Q9UJJ9)
inactive: nilotinib -0.102 | [1] -0.031 | dasatinib -0.072 | [2] 0.04 | [3] -0.052 | quisinostat -0.006 | tipifarnib -0.063 | [4] 0.044 | [5] 0.016 | [6] 0.093

Reprinted at random: two entries already listed
GIGYF1 (UniProt O75420)
inactive: nilotinib -0.03 | [1] 0.013 | dasatinib -0.078 | [2] -0.013 | [3] -0.003 | quisinostat -0.156 | tipifarnib -0.053 | [4] 0.03 | [5] 0.057 | [6] 0.104

GNPTG (UniProt Q9UJJ9)
inactive: nilotinib -0.102 | [1] -0.031 | dasatinib -0.072 | [2] 0.04 | [3] -0.052 | quisinostat -0.006 | tipifarnib -0.063 | [4] 0.044 | [5] 0.016 | [6] 0.093

(list continues)

GNG5 (UniProt P63218)
inactive: nilotinib 0.084 | [1] -0.051 | dasatinib 0.051 | [2] 0.133 | [3] 0.001 | quisinostat 0.064 | tipifarnib -0.07 | [4] -0.084 | [5] -0.023 | [6] 0.049

GINS4 (UniProt Q9BRT9)
inactive: nilotinib -0.019 | [1] -0.009 | dasatinib 0.01 | [2] -0.007 | [3] 0.015 | quisinostat -0.004 | tipifarnib -0.014 | [4] 0.012 | [5] 0.001 | [6] -0.035

GORASP2 isoform 3 (UniProt Q9H8Y8)
inactive: nilotinib -0.019 | [1] -0.023 | dasatinib -0.083 | [2] 0.027 | [3] -0.004 | quisinostat 0.024 | tipifarnib 0.045 | [4] 0.028 | [5] -0.004 | [6] 0.031

GPAA1 (UniProt O43292)
inactive: nilotinib -0.013 | [1] 0.007 | dasatinib -0.014 | [2] 0.032 | [3] 0.023 | quisinostat -0.057 | tipifarnib -0.011 | [4] 0.019 | [5] -0.01 | [6] -0.089

GGA3 (UniProt Q9NZ52)
inactive: nilotinib -0.061 | [1] -0.008 | dasatinib -0.015 | [2] -0.055 | [3] 0.016 | quisinostat -0.046 | tipifarnib 0.015 | [4] 0.058 | [5] -0.003 | [6] 0.022

GOLPH3L (UniProt Q9H4A5)
inactive: nilotinib -0.045 | [1] 0.033 | dasatinib 0 | [2] -0.006 | [3] 0.01 | quisinostat -0.026 | tipifarnib 0.018 | [4] 0.094 | [5] 0.013 | [6] -0.039

GLG1 isoform 2 (UniProt Q92896)
inactive: nilotinib 0.014 | [1] -0.008 | dasatinib 0.018 | [2] 0.024 | [3] 0.021 | quisinostat -0.017 | tipifarnib -0.012 | [4] 0.016 | [5] 0.005 | [6] -0.01

GOSR2 isoform 2 (UniProt O14653)
inactive: nilotinib 0.033 | [1] -0.114 | dasatinib -0.021 | [2] -0.048 | [3] -0.003 | quisinostat 0.028 | tipifarnib -0.082 | [4] 0.029 | [5] 0.02 | [6] 0.026

GOLGA1 (UniProt Q92805)
inactive: nilotinib 0.033 | [1] -0.009 | dasatinib -0.026 | [2] -0.015 | [3] 0.022 | quisinostat -0.073 | tipifarnib -0.099 | [4] 0.042 | [5] 0.106 | [6] 0.004

GPS2 (UniProt Q13227)
inactive: nilotinib -0.007 | [1] -0.063 | dasatinib -0.018 | [2] -0.006 | [3] 0.025 | quisinostat 0.036 | tipifarnib -0.078 | [4] 0.008 | [5] -0.037 | [6] 0.034

GPN3 isoform 2 (UniProt Q9UHW5)
inactive: nilotinib -0.07 | [1] -0.002 | dasatinib 0.058 | [2] 0.002 | [3] -0.052 | quisinostat -0.041 | tipifarnib -0.038 | [4] 0.008 | [5] 0.025 | [6] -0.048

GPD2 (UniProt P43304)
inactive: nilotinib 0.051 | [1] -0.001 | dasatinib 0.025 | [2] 0.001 | [3] 0.036 | quisinostat 0.012 | tipifarnib -0.004 | [4] -0.027 | [5] -0.011 | [6] -0.006

GGCT (UniProt O75223)
inactive: nilotinib 0.052 | [1] 0.037 | dasatinib 0.008 | [2] 0.028 | [3] -0.002 | quisinostat 0.051 | tipifarnib 0.023 | [4] -0.013 | [5] -0.005 | [6] 0.002

GINS1 (UniProt Q14691)
inactive: nilotinib 0.056 | [1] -0.022 | dasatinib 0.037 | [2] 0 | [3] 0.01 | quisinostat -0.044 | tipifarnib 0.002 | [4] -0.034 | [5] 0.016 | [6] 0.033
